This experiment has as its target FLAG-L148S (GPR54 L148S mutant) (human) (UniProt Q969F8). Briefly: co-IP; HEK 293 cells co-transfected with FLAG-L148S and β-arrestin-1-GFP or β-arrestin-2-GFP; untreated or stimulated with 100 nM Kp-10 for 5 min; FLAG-L148S immunoprecipitated from 750 µg of total protein with FLAG-agarose beads; immunoblot with anti-GFP.

Sequences of proteins named here, by UniProt entry; tags and fusion partners are left off. A change or cut given only in a name is not applied to a line headed by its entry.
UniProt Q969F8: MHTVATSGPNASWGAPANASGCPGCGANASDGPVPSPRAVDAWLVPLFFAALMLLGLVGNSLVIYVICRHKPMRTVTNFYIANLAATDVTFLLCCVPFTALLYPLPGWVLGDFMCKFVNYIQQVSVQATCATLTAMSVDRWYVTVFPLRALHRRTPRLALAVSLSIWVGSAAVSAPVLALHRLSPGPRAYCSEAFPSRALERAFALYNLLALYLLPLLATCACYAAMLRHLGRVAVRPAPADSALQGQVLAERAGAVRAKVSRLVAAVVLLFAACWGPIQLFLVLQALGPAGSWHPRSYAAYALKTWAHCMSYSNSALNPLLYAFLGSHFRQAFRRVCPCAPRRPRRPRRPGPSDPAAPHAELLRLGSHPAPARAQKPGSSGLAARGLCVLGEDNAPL
UniProt P29067: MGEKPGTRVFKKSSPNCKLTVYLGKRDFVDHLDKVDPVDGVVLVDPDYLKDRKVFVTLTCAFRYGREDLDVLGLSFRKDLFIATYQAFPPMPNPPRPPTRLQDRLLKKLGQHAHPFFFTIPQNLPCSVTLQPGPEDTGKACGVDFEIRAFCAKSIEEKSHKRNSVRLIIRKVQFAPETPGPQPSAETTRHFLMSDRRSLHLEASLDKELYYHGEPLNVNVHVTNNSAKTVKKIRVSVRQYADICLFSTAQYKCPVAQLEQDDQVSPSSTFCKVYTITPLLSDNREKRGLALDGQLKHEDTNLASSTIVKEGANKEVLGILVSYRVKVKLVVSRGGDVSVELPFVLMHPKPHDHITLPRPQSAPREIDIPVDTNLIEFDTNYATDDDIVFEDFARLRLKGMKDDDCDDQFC
UniProt P29066: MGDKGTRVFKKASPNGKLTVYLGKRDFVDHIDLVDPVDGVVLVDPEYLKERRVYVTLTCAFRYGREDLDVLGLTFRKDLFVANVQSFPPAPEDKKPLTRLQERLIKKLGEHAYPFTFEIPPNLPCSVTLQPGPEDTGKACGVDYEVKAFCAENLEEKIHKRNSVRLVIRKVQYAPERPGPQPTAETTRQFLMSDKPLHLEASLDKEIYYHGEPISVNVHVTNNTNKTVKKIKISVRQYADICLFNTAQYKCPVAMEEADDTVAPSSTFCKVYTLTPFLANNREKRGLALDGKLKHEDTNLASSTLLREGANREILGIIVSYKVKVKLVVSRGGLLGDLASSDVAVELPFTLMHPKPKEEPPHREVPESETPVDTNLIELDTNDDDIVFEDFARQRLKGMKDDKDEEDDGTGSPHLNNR

These results are taken from paper PMC2944883.

No constants are given. Whether binding was seen depends on the method and setting. In cells and extracts the contact can be indirect. Some binding calls cover weakened binding; strength is not graded here.

Take “β-arrestin-2-GFP (from UniProt P29067 1-410)”: the binding entry is “binds”.
Consider “β-arrestin-1-GFP (from UniProt P29066 1-418)”, for which the binding entry was “binds”.
